Assay results published in PubChem BioAssay AID540275 (National Center for Advancing Translational Sciences (NCATS), 2011).
Among all 320,000 compounds or so, about 620 (0.19%) were called active. Inconclusive results, whose numbers are uncertain, are shown with a selection of clear calls. No stated cut-off is given here; in the data, active means activation above about 80%; inconclusive means between about 30% and that limit; inactive means weaker than that.

Sequences of proteins named here, by UniProt entry; tags and fusion partners are left off.
UniProt Q8NER1, whole entry, looked up: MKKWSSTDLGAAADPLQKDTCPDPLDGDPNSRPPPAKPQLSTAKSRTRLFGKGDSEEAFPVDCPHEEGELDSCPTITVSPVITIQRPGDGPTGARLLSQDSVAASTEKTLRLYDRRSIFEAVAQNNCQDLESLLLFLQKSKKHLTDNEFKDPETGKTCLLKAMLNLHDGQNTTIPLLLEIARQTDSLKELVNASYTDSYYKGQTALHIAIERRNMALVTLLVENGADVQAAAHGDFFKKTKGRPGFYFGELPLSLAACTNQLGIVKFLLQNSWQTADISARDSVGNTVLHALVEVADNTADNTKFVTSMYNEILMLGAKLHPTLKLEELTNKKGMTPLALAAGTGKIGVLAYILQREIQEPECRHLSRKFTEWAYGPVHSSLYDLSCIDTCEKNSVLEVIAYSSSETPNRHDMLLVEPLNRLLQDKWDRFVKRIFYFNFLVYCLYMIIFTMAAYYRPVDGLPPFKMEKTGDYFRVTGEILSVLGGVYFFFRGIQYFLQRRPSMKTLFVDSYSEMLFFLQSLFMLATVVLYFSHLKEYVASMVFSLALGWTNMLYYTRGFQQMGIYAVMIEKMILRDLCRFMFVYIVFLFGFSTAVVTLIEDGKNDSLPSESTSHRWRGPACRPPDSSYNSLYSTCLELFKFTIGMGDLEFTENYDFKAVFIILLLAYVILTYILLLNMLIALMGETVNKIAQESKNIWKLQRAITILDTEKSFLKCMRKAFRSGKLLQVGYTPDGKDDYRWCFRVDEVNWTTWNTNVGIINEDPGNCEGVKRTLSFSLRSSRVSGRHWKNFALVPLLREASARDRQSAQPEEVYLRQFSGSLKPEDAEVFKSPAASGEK

target: Transient receptor potential cation channel subfamily V member 1 (Homo sapiens) (UniProt Q8NER1); assay: HTS Assay for Compounds that Act as Agonists of the Vanilloid Receptor 1; conditions: TRPV1-expressing cells, Fluo-8 calcium influx, agonist mode; at 8.33 µM, hits give high values; further: 0% is about no effect
Summary of the method: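 Fluo-8 calcium influx in TRPV1-expressing cells, kinetic read (ex 480/em 520 nm). Compound added and read 3 min for agonist activity, followed by capsaicin at EC20 final and 2 min further read for enhancement.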

Row | SMILES | activation
1 | CCOC(=O)c1sc2ncn(C(C)C(=O)OC)c(=O)c2c1C (stereo not given) | inconclusive: 46%
2 | CC(C)N(C(=O)COC(=O)c1cccc(N(C)C)c1)c1ccccc1 | inconclusive: 52.8%
3 | CC(C)(C)c1ccc(C(=O)CCC(=O)NCc2ccccc2)cc1 | inconclusive: 33.7%
4 | COc1ccc(CN(C(=O)c2nsc(Cl)c2Cl)C(C(=O)NC2CCCC2)c2ccc(C)cc2)cc1 (stereo not given) | inconclusive: 31.7%
5 | CCOC(=O)CCc1c(C(=O)OCC)[nH]c(CC)c1C(=O)OCc1ccccc1 | inconclusive: 50%
6 | COc1ccc(CN(C)C(C)C(=O)Nc2cccc3ccccc23)cc1 (stereo not given) | inconclusive: 39.6%
7 | COc1ccccc1NC(=S)NCCSc1ccc(C)cc1 | inconclusive: 33.6%
8 | CN(C)c1nc(OCCNC(=O)Nc2ccccc2)nc(N2CCCCC2)n1 | inconclusive: 79.4%
9 | COc1ccc(NC2CCCN(C(=O)CCN3Cc4ccccc4C3=O)C2)cc1 (stereo not given) | inactive: 19.3%
10 | COc1ccc(OCCNC(=O)c2ccc(C)cc2)cc1 | inconclusive: 32.1%
11 | O=C(CCCN1C(=O)c2ccccc2C1=O)OC1CSCC1NC(=O)c1ccccc1 (stereo not given) | inactive: 3.24%
12 | CC(C)(C=O)Cc1cc(C(C)(C)C)c(O)c(C(C)(C)C)c1 | inconclusive: 35.5%
13 | Clc1nnc(NN=C2CCCC2)c2ccccc12 | inactive: 1.25%
14 | O=[N+]([O-])c1ccc(C(O)CN=Cc2ccc(O)cc2O)cc1 (stereo not given) | inactive: 1.8%
15 | CC(C)Cc1ccc(S(=O)(=O)Nc2ccc3[nH]c(=O)[nH]c3c2)cc1 | inconclusive: 49.3%
16 | CCOC(=O)c1c(NC(=O)CSc2nc3ccccc3[nH]2)sc2c1CC(C)(C)NC2(C)C | inconclusive: 52.4%
17 | CCN1CCN(C(=O)C2CCCN(c3ncnc4c3nc3n4CCCCC3)C2)CC1 (stereo not given) | inconclusive: 70.4%
18 | COc1ccc(NC(=O)C#Cc2ccccc2)cc1 | inconclusive: 59%
19 | Cc1cc(C)cc(C(=O)Nc2ccc(N3CCCC3)cc2)c1 | inconclusive: 76.3%
20 | O=C(Nc1ccc(F)cc1)C(Sc1nc2ccccc2[nH]1)c1ccccc1 (stereo not given) | inconclusive: 40.8%

Row | SMILES | activation
21 | Cc1ccnc(NC(=O)COc2ccc3c(c2)CCC3)c1 | inconclusive: 57%
22 | CCN1CCN(S(=O)(=O)c2ccc(Cl)c(C(=O)Nc3ccccc3N3CCCC3)c2)CC1 | inactive: 14.2%
23 | O=C(Nc1ccc2sccc2c1)c1ccc(Cl)s1 | inconclusive: 72.8%
24 | O=C(NCCc1c[nH]c2ccccc12)c1ccc2c(c1)OCO2 | inactive: 3.34%
25 | c1ccc(COc2cccc(CNCc3ccccn3)c2)cc1 | inactive: 5.57%
26 | O=C(Nc1ccccc1)C1CC2CCC1C2 (stereo not given) | inconclusive: 44.9%
27 | CC(C)Cc1nc(N2CCN(C(=O)C(C)C)CC2)c(C#N)c2c1CCC2 | inactive: -0.622%
28 | Cc1nnc(SCC(=O)NC2CC2)s1 | inactive: -0.716%
29 | O=C(Cc1ccc(-c2ccccc2)cc1)NC1CCCC1 | inconclusive: 31.6%
30 | COc1ccc2nc(-c3ccccc3)nc(C3CCCCC3)c2c1 | inactive: -2.96%
31 | CN(Cc1ccccc1)S(=O)(=O)c1ccc(OCC(=O)NCc2ccncc2)cc1 | inconclusive: 70.8%
32 | CCOC(=O)c1nc(Nc2ccc(OC)cc2)c2ccccc2n1 | inconclusive: 41.8%
33 | COc1ccc(/C=N/NC(=O)c2cc(C34CC5CC(CC(C5)C3)C4)[nH]n2)cc1O | inconclusive: 56.8%
34 | CCCCN(C(=O)c1cc(S(=O)(=O)N2CCCCCC2)ccc1OC)c1ccccc1 | inconclusive: 46.1%
35 | CC(=O)c1cccc(NC(=O)N2CCC(c3ccc(C)cc3)C2)c1 (stereo not given) | inconclusive: 78.4%
36 | COc1ccc(C(=O)N/N=C/c2cccnc2)cc1 | inconclusive: 39%
37 | O=C(NC1CC1)c1cc2cc3ccccc3nc2s1 | inconclusive: 58.4%
38 | CC(C(=O)NCc1ccc2c(c1)OCO2)c1ccc([N+](=O)[O-])cc1 (stereo not given) | inconclusive: 72.7%
39 | COc1ccccc1C(=O)NC(=O)COC(=O)c1nc(Cl)ccc1Cl | inactive: 1.54%
40 | CCCCNc1c(-c2ccc(SC3CCCCC3)cc2)nc2ccccn12 | inconclusive: 64.9%

Quoted from above (12 entries):
Row | SMILES | activation
25 | c1ccc(COc2cccc(CNCc3ccccn3)c2)cc1 | inactive: 5.57%
26 | O=C(Nc1ccccc1)C1CC2CCC1C2 (stereo not given) | inconclusive: 44.9%
27 | CC(C)Cc1nc(N2CCN(C(=O)C(C)C)CC2)c(C#N)c2c1CCC2 | inactive: -0.622%
28 | Cc1nnc(SCC(=O)NC2CC2)s1 | inactive: -0.716%
29 | O=C(Cc1ccc(-c2ccccc2)cc1)NC1CCCC1 | inconclusive: 31.6%
30 | COc1ccc2nc(-c3ccccc3)nc(C3CCCCC3)c2c1 | inactive: -2.96%
31 | CN(Cc1ccccc1)S(=O)(=O)c1ccc(OCC(=O)NCc2ccncc2)cc1 | inconclusive: 70.8%
32 | CCOC(=O)c1nc(Nc2ccc(OC)cc2)c2ccccc2n1 | inconclusive: 41.8%
33 | COc1ccc(/C=N/NC(=O)c2cc(C34CC5CC(CC(C5)C3)C4)[nH]n2)cc1O | inconclusive: 56.8%
34 | CCCCN(C(=O)c1cc(S(=O)(=O)N2CCCCCC2)ccc1OC)c1ccccc1 | inconclusive: 46.1%
35 | CC(=O)c1cccc(NC(=O)N2CCC(c3ccc(C)cc3)C2)c1 (stereo not given) | inconclusive: 78.4%
36 | COc1ccc(C(=O)N/N=C/c2cccnc2)cc1 | inconclusive: 39%

(further entries)

Row | SMILES | activation
41 | Cc1nc2scc(-c3cccs3)c2c(=O)[nH]1 | inactive: -3.35%
42 | CC(=O)c1c(O)cc(C)n(-c2ccc(F)cc2)c1=O | inactive: -1.34%
43 | CC(C)c1ccc(NC(=S)NNC(=O)c2cccs2)cc1 | inconclusive: 78.4%
44 | O=C(NCc1cccc(C(F)(F)F)c1)c1cccc(Cl)c1Cl | inconclusive: 31.3%
45 | Cc1ccc(-c2nc3cc(N)ccc3o2)cc1 | inactive: 1.8%
46 | O=C(N/N=C/c1ccc(OC(F)F)cc1)C1=COCCO1 | inconclusive: 54.3%
47 | Cc1cccc(Cn2nnc3ccccc32)c1O | inactive: 15.7%
48 | CN(C(=O)COC(=O)c1cccc(S(=O)(=O)N(C)c2ccccc2)c1)C1CCCCC1 | inconclusive: 31.2%
49 | CC(=O)NCCC1CCN(c2nc3nonc3nc2N(C)Cc2ccccc2)CC1 | inconclusive: 49.9%
50 | Cc1cc(S(=O)(=O)N(Cc2ccc(F)cc2)CC2CCCO2)ccc1-n1cnnn1 (stereo not given) | inconclusive: 65.6%
51 | CC(C)(C)NC(=O)CN(Cc1cccs1)C(=O)CCN1CCc2ccccc21 | inconclusive: 40.4%
52 | O=C(Nc1ccc2c(c1)OCO2)Nc1ccc2c(c1)OCO2 | inactive: 8.42%
53 | Cc1ccc(S(=O)(=O)NC(=O)COc2ccc(Cl)cc2Cl)cc1 | inactive: 8.48%
54 | CCN(CC)S(=O)(=O)c1ccc2c(c1)nc(SCC(=O)N1CCCCCC1)n2-c1ccc(OC)cc1 | inconclusive: 37%
55 | Nn1c(-c2ccccc2)cc(-c2ccccc2)cc1=O | inconclusive: 44.9%
56 | COc1ccc(Cl)cc1NC(=S)Nc1ccccc1C | inactive: 7.43%
57 | CC(Oc1ccccc1)C(=O)Nc1cc(Cl)ccc1-n1cncn1 (stereo not given) | inconclusive: 61.5%
58 | CCC(=O)NCc1c(C)c(C)n(Cc2ccccc2)c1-n1cccc1 | inconclusive: 30.6%
59 | O=C(Cc1cccs1)NNC(=S)NC(=O)c1ccco1 | inactive: -2.92%
60 | COc1ccc(CNC(=O)C[C@H]2C(=O)N(c3ccccc3)C[C@@H]2Cc2ccccc2)cc1 | inconclusive: 37.1%
